Data as given in PubChem BioAssay AID1259308 (NCATS, 2017).

- Aim: 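Genes whose loss raises luciferase production in HEK293 cells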 (primary screen)
- Cell system: human HEK293 embryonic kidney cells stably expressing firefly luciferase (HEK-CMV-Luc2-Hygro)
- Reagent: single siRNA against human genes, 0.8 pmol siRNA per well
- Timing: 72 h
- Detection: 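Luciferase light (ONE-Glo) measured on one replicate plate set and viability (CellTiter-Glo) on the other, scaled to a negative control siRNA, with robust z-scores and luciferase per cell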
- Scale: total luciferase, z-score and total luciferase, % of control: higher = more reporter protein produced; luciferase per cell, z-score: higher = more reporter output per viable cell; viable cells, % of control: higher = more viable cells
- Hit rule: 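Active when the median/MAD z-score for overall luciferase is greater than 3; a gene was taken forward for validation with new siRNAs if at least two of its three siRNAs passed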
- Meaning of the calls: active = raised luciferase; inactive = no rise
This is one part, drawn at random, of about 59,000 deposited reagents. Of all reagents, about 1,510 (2.6%) were called active. 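Calls use total luciferase alone and ignore viability, so some active siRNAs may act by altering cell number.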 Unmarked entries are inactive. The numbers tell different reagents against one gene apart.

gene | siRNA no. | total luciferase, z-score | total luciferase, % of control | luciferase per cell, z-score | viable cells, % of control
FAM230B (family with sequence similarity 230 member B) | 1 | -2.11 | 40 | -0.969 | 57.7
FAM230B (family with sequence similarity 230 member B) | 2 | 0.517 | 92.2 | 0.0848 | 101
FAM230B (family with sequence similarity 230 member B) | 3 | 2.81 | 138 | 3.49 | 61.5
ACSL5 (acyl-CoA synthetase long chain family member 5) | 1 | -0.803 | 65.9 | -0.707 | 88.7
ACSL5 (acyl-CoA synthetase long chain family member 5) | 2 | 0.523 | 92.3 | 0.133 | 99.6
ACSL5 (acyl-CoA synthetase long chain family member 5) | 3 | -0.154 | 78.8 | -0.381 | 97.4
PACSIN1 (protein kinase C and casein kinase substrate in neurons 1) | 1 | 4.71 (active) | 176 | 3.72 | 73.6
PACSIN1 (protein kinase C and casein kinase substrate in neurons 1) | 2 | -0.421 | 73.5 | 0.29 | 76.1
PACSIN1 (protein kinase C and casein kinase substrate in neurons 1) | 3 | 1.64 | 115 | 2.86 | 60.3
MOV10 (Mov10 RNA helicase) | 1 | 0.496 | 91.7 | 0.0583 | 101
MOV10 (Mov10 RNA helicase) | 2 | -0.0313 | 81.3 | 0.869 | 72.2
MOV10 (Mov10 RNA helicase) | 3 | 4.77 (active) | 177 | 4.54 | 59.8
NFE2 (nuclear factor, erythroid 2) | 1 | -0.483 | 72.3 | -0.821 | 100
NFE2 (nuclear factor, erythroid 2) | 2 | -0.322 | 75.5 | 0.00178 | 84.3
NFE2 (nuclear factor, erythroid 2) | 3 | 2.09 | 124 | 1.8 | 85.8
SNRNP35 (small nuclear ribonucleoprotein U11/U12 subunit 35) | 1 | 0.327 | 88.4 | 0.226 | 93.1
SNRNP35 (small nuclear ribonucleoprotein U11/U12 subunit 35) | 2 | 0.64 | 94.6 | -0.693 | 127
SNRNP35 (small nuclear ribonucleoprotein U11/U12 subunit 35) | 3 | -0.265 | 76.6 | -0.883 | 108
BCLAF1 (BCL2 associated transcription factor 1) | 1 | 2.81 | 138 | 2.34 | 83.1
BCLAF1 (BCL2 associated transcription factor 1) | 2 | 1.11 | 104 | 0.693 | 96.7
BCLAF1 (BCL2 associated transcription factor 1) | 3 | -0.839 | 65.2 | 0.385 | 65.8
MSL3B (MSL complex subunit 3B) | 1 | -2.36 | 35 | -1.29 | 55
MSL3B (MSL complex subunit 3B) | 2 | -0.0971 | 80 | -0.0823 | 91.3
MSL3B (MSL complex subunit 3B) | 3 | 1.66 | 115 | 1.07 | 96.8
RAB4B (RAB4B, member RAS oncogene family) | 1 | -0.626 | 69.4 | -0.697 | 93.2
RAB4B (RAB4B, member RAS oncogene family) | 2 | -0.624 | 69.5 | -1.18 | 106
RAB4B (RAB4B, member RAS oncogene family) | 3 | -1.09 | 60.1 | 0.475 | 59.3
FSIP2 (fibrous sheath interacting protein 2) | 1 | 1.89 | 119 | 1.3 | 94.8
FSIP2 (fibrous sheath interacting protein 2) | 2 | -0.101 | 79.9 | -0.755 | 109
FSIP2 (fibrous sheath interacting protein 2) | 3 | 1.82 | 118 | 3.08 | 58.6
FSIP2 (fibrous sheath interacting protein 2) | 4 | 0.145 | 84.8 | -0.33 | 103
FSIP2 (fibrous sheath interacting protein 2) | 5 | -0.796 | 66.1 | 0.109 | 71.7
FSIP2 (fibrous sheath interacting protein 2) | 6 | 2.48 | 131 | 2.13 | 83.8
EYA3 (EYA transcriptional coactivator and phosphatase 3) | 1 | 1.4 | 110 | 1.56 | 81.4
EYA3 (EYA transcriptional coactivator and phosphatase 3) | 2 | 1.34 | 108 | 0.729 | 100
EYA3 (EYA transcriptional coactivator and phosphatase 3) | 3 | -0.151 | 78.9 | 0.827 | 70.9

Entries above whose gene name starts with F or f (9):
gene | siRNA no. | total luciferase, z-score | total luciferase, % of control | luciferase per cell, z-score | viable cells, % of control
FAM230B (family with sequence similarity 230 member B) | 1 | -2.11 | 40 | -0.969 | 57.7
FAM230B (family with sequence similarity 230 member B) | 2 | 0.517 | 92.2 | 0.0848 | 101
FAM230B (family with sequence similarity 230 member B) | 3 | 2.81 | 138 | 3.49 | 61.5
FSIP2 (fibrous sheath interacting protein 2) | 1 | 1.89 | 119 | 1.3 | 94.8
FSIP2 (fibrous sheath interacting protein 2) | 2 | -0.101 | 79.9 | -0.755 | 109
FSIP2 (fibrous sheath interacting protein 2) | 3 | 1.82 | 118 | 3.08 | 58.6
FSIP2 (fibrous sheath interacting protein 2) | 4 | 0.145 | 84.8 | -0.33 | 103
FSIP2 (fibrous sheath interacting protein 2) | 5 | -0.796 | 66.1 | 0.109 | 71.7
FSIP2 (fibrous sheath interacting protein 2) | 6 | 2.48 | 131 | 2.13 | 83.8

The listing continues.
gene | siRNA no. | total luciferase, z-score | total luciferase, % of control | luciferase per cell, z-score | viable cells, % of control
CLDND1 (claudin domain containing 1) | 1 | -2.31 | 36 | -0.717 | 48.6
CLDND1 (claudin domain containing 1) | 2 | 1.15 | 105 | 2.87 | 55
CLDND1 (claudin domain containing 1) | 3 | -1.33 | 55.5 | -1.63 | 95.2
CD8A (CD8 subunit alpha) | 1 | -0.231 | 77.3 | -0.0137 | 86.7
CD8A (CD8 subunit alpha) | 2 | -0.207 | 77.8 | -0.87 | 109
CD8A (CD8 subunit alpha) | 3 | 0.153 | 84.9 | 0.497 | 83.3
ZNF778 (zinc finger protein 778) | 1 | -0.898 | 64 | -0.471 | 81
ZNF778 (zinc finger protein 778) | 2 | -1.09 | 60.3 | -0.164 | 70.3
ZNF778 (zinc finger protein 778) | 3 | 0.0904 | 83.7 | 0.129 | 90.4
CNEP1R1 (CTD nuclear envelope phosphatase 1 regulatory subunit 1) | 1 | -1.81 | 45.9 | -1.82 | 82.9
CNEP1R1 (CTD nuclear envelope phosphatase 1 regulatory subunit 1) | 2 | 0.0319 | 82.5 | 0.862 | 73.5
CNEP1R1 (CTD nuclear envelope phosphatase 1 regulatory subunit 1) | 3 | 0.439 | 90.6 | 0.254 | 94.7
SELPLG (selectin P ligand) | 1 | -1.12 | 59.7 | -1.59 | 101
SELPLG (selectin P ligand) | 2 | -1.51 | 51.9 | -1.6 | 88.5
SELPLG (selectin P ligand) | 3 | -1.48 | 52.5 | -2.34 | 109
TAS2R14 (taste 2 receptor member 14) | 1 | 0.627 | 94.4 | 0.378 | 95.5
TAS2R14 (taste 2 receptor member 14) | 2 | -0.223 | 77.5 | -0.45 | 97.4
TAS2R14 (taste 2 receptor member 14) | 3 | -0.408 | 73.8 | -1.12 | 111
RHOQ (ras homolog family member Q) | 1 | 0.4 | 89.8 | 0.228 | 94.5
RHOQ (ras homolog family member Q) | 2 | -0.428 | 73.4 | -0.0263 | 82.6
RHOQ (ras homolog family member Q) | 3 | 0.0945 | 83.8 | -0.487 | 106
TXNDC11 (thioredoxin domain containing 11) | 1 | 0.695 | 95.7 | 0.797 | 86.7
TXNDC11 (thioredoxin domain containing 11) | 2 | -0.449 | 73 | -0.907 | 104
TXNDC11 (thioredoxin domain containing 11) | 3 | -0.313 | 75.7 | -0.171 | 88.4
UNC45B (unc-45 myosin chaperone B) | 1 | -0.641 | 69.1 | 0.0462 | 76.3
UNC45B (unc-45 myosin chaperone B) | 2 | 0.194 | 85.7 | 0.952 | 74.6
UNC45B (unc-45 myosin chaperone B) | 3 | 2.29 | 128 | 2.03 | 83.5
C8A (complement C8 alpha chain) | 1 | -0.161 | 78.7 | -0.567 | 102
C8A (complement C8 alpha chain) | 2 | -1.39 | 54.2 | -1.77 | 96.6
C8A (complement C8 alpha chain) | 3 | -0.765 | 66.7 | -0.81 | 92.2
PSMB7 (proteasome 20S subunit beta 7) | 1 | 0.562 | 93.1 | 0.508 | 91
PSMB7 (proteasome 20S subunit beta 7) | 2 | 0.287 | 87.6 | 0.884 | 77.6
PSMB7 (proteasome 20S subunit beta 7) | 3 | -0.888 | 64.2 | 0.676 | 60.1
TSPAN18 (tetraspanin 18) | 1 | -0.0519 | 80.9 | 1.47 | 61.4
TSPAN18 (tetraspanin 18) | 2 | 0.17 | 85.3 | -0.155 | 99.2
TSPAN18 (tetraspanin 18) | 3 | -0.239 | 77.1 | -0.312 | 93.6
NCF1 (neutrophil cytosolic factor 1) | 1 | -0.44 | 73.1 | 0.313 | 75.3
NCF1 (neutrophil cytosolic factor 1) | 2 | -0.895 | 64.1 | -0.871 | 90.1
NCF1 (neutrophil cytosolic factor 1) | 3 | -0.744 | 67.1 | -0.65 | 89
